Results deposited as PubChem BioAssay AID1259424 (University of Nebraska Medical Center, 2018).
The deposit covers about 14,000 reagents; below is an unselected part. 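Higher correlation or smaller distance means closer resemblance to KSR1 loss; control wells, including KSR1 knockdowns, recur on many plates.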 Not given: the time to read-out.

Aim: 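Find knockdowns that reproduce the expression shifts seen after KSR1 loss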 (primary screen)
Cells: human HCT116 colon cancer cells
Reagent: siRNA pool against human genes, 50 nM
Read-out: 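Log2 levels of six mRNAs (branched-DNA multiplex), adjusted by two reference genes and the non-targeting median, then scored against the average KSR1 knockdown pattern as Pearson r and euclidean distance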
Scale: mean correlation with KSR1 profile and KSR1 correlation: higher = expression change more like KSR1 knockdown; mean distance from KSR1 profile: higher = expression change less like KSR1 knockdown

no.	gene symbol	mean correlation with KSR1 profile	mean distance from KSR1 profile	KSR1 correlation, replicate 1	KSR1 correlation, replicate 2	KSR1 correlation, replicate 3
1	PCGF5 (polycomb group ring finger 5)	0.234	2.69	0.0839	0.156	-0.0878
2	PCK1 (phosphoenolpyruvate carboxykinase 1)	0.428	2.82	0.501	0.649	0.0341
3	PSMD14 (proteasome 26S subunit, non-ATPase 14)	-0.00568	1.91	-0.0442	-0.271	0.0393
4	EVL (Enah/Vasp-like)	0.162	2.16	0.383	0.272	-0.18
5	RAI2 (retinoic acid induced 2)	-0.354	2.73	-0.296	-0.239	-0.233
6	CRYBA2 (crystallin beta A2)	0.338	2.47	0.311	0.35	0.352
7	PRR16 (proline rich 16)	-0.145	3.32	-0.22	-0.125	-0.152
8	ANKRD13C-DT (ANKRD13C divergent transcript)	-0.41	2.81	-0.126	-0.472	-0.526
9	FOXJ1 (forkhead box J1)	-0.148	4.07	-0.167	-0.246	0.038
10	SCAMP2	0.176	1.86	0.318	0.239	0.398
11	RP2 (RP2 activator of ARL3 GTPase)	0.349	1.36	0.459	-0.181	0.343
12	ZIC4 (Zic family zinc finger 4)	0.121	2.13	-0.235	0.149	0.44
13	XRCC5 (X-ray repair cross complementing 5)	-0.269	2.25	-0.369	-0.283	-0.0238
14	BUB1 (BUB1 mitotic checkpoint serine/threonine kinase)	0.326	3.03	0.409	0.442	0.0523
15	GYS1 (glycogen synthase 1)	0.513	1.11	0.55	0.427	0.526
16	CHRNA4 (cholinergic receptor nicotinic alpha 4 subunit)	-0.389	1.81	0.0501	-0.576	-0.686
17	MAP1LC3B (microtubule associated protein 1 light chain 3 beta)	-0.016	2.21	-0.172	-0.179	-0.162
18	USP10 (ubiquitin specific peptidase 10)	-0.381	1.51	-0.142	-0.28	-0.884
19	CLINT1 (clathrin interactor 1)	-0.613	4.45	-0.581	-0.626	-0.413
20	SSPOP (SCO-spondin, pseudogene)	-0.451	4.11	-0.494	-0.494	-0.254
21	CNDP1 (carnosine dipeptidase 1)	0.66	1.34	0.452	0.726	0.598
22	MBD2 (methyl-CpG binding domain protein 2)	0.609	1.2	0.483	0.695	0.652
23	NODAL (nodal growth differentiation factor)	0.763	1.84	0.826	0.748	0.53
24	EXOSC4 (exosome component 4)	-0.553	1.46	-0.636	-0.313	-0.317
25	IFNA1 (interferon alpha 1)	-0.138	2.91	-0.155	-0.287	-0.159
26	SCAPER (S-phase cyclin A associated protein in the ER)	0.0811	1.41	-0.193	0.0939	0.351
27	LYPD3 (LY6/PLAUR domain containing 3)	0.0865	1.49	-0.232	-0.422	-0.0895
28	ATP8A1 (ATPase phospholipid transporting 8A1)	-0.131	2.92	-0.106	0.0294	-0.389

Targets listed so far whose target name starts with M or m:
gene symbol	mean correlation with KSR1 profile	mean distance from KSR1 profile	KSR1 correlation, replicate 1	KSR1 correlation, replicate 2	KSR1 correlation, replicate 3
MAP1LC3B (microtubule associated protein 1 light chain 3 beta)	-0.016	2.21	-0.172	-0.179	-0.162
MBD2 (methyl-CpG binding domain protein 2)	0.609	1.2	0.483	0.695	0.652

The results go on.
no.	gene symbol	mean correlation with KSR1 profile	mean distance from KSR1 profile	KSR1 correlation, replicate 1	KSR1 correlation, replicate 2	KSR1 correlation, replicate 3
29	RPS17 (ribosomal protein S17)	0.14	1.63	-0.0452	0.0828	0.297
30	SLC41A2	0.603	1.55	0.419	0.51	0.672
31	NAAA (N-acylethanolamine acid amidase)	-0.0584	1.12	-0.533	-0.102	-0.32
32	ADGRA2 (adhesion G protein-coupled receptor A2)	0.772	1.23	0.772	0.791	0.768
33	SLC7A5	-0.476	1.7	-0.476	-0.391	-0.455
34	CXCL13 (C-X-C motif chemokine ligand 13)	0.883	1.08	0.901	0.738	0.811
35	TMEM147 (transmembrane protein 147)	-0.418	3.94	-0.314	-0.399	-0.409
36	H2AC8 (H2A clustered histone 8)	0.157	1.84	0.0158	0.24	0.182
37	OR8G1 (olfactory receptor family 8 subfamily G member 1)	0.123	1.71	-0.224	0.358	-0.216
38	RNF32 (ring finger protein 32)	0.566	0.897	0.435	0.345	0.758
39	C2orf42 (chromosome 2 open reading frame 42)	0.228	1.58	0.396	0.113	-0.0574
40	CD5 (CD5 molecule)	0.719	0.983	0.836	0.538	0.604
41	RPS23 (ribosomal protein S23)	-0.248	1.37	-0.61	-0.295	0.0978
42	CLDN22 (claudin 22)	-0.213	2.06	-0.217	-0.558	0.195
43	OVGP1 (oviductal glycoprotein 1)	-0.423	1.35	-0.17	-0.404	-0.406
44	OFD1 (OFD1 centriole and centriolar satellite protein)	0.395	4.29	0.392	0.25	0.343
45	MS4A8 (membrane spanning 4-domains A8)	-0.0469	1.3	0.0205	-0.0302	-0.502
46	TBC1D7 (TBC1 domain family member 7)	-0.677	1.82	-0.821	-0.127	-0.638
47	CNTFR (ciliary neurotrophic factor receptor)	-0.0129	1.81	0.155	0.124	-0.237
48	RSBN1 (round spermatid basic protein 1)	-0.847	2.57	-0.874	-0.937	-0.733
49	BICC1 (BicC family RNA binding protein 1)	0.506	1.97	0.562	0.374	0.254
50	SLC25A16	-0.297	2.86	-0.162	-0.339	-0.313
